Results as given in PMC10609061, “Detection of Various Traditional Chinese Medicinal Metabolites as Angiotensin-Converting Enzyme Inhibitors: Molecular Docking, Activity Testing, and Surface Plasmon Resonance Approaches” (Molecules, 2023).

Test system: ACE1 (angiotensin-converting enzyme)
Experiment: ACE inhibition measurement with ACE1 activity test kit (fluorescence)
Conditions: TCM metabolite at 25 uM

- Inhibition rate (%) of ACE1 activity, relative to captopril taken as 100%: more than 20% and 28.7%
SMILES: O=c1cc(-c2ccc(O)c(O)c2)oc2cc(O)c([C@@H]3O[C@H](CO)[C@@H](O)[C@H](O)[C@H]3O)c(O)c12 [Homoorientin]

Not every entry of the source has a single result; some have several. The list is limited to them. There may be further records. Values that stand side by side differ, and nothing given here explains why; some may be repeats, others may stem from another dose, organism or construct than stated.
